From the supplement of paper PMC6411743
± gives the standard deviation of the averaged measurements. Only a part is listed here, and it is no random draw.

The chains behind the UniProt entries cited, without tags or fusion partners. Where a name states a change or a piece, a line headed by the entry shows the natural chain unless it says otherwise.
UniProt O94915: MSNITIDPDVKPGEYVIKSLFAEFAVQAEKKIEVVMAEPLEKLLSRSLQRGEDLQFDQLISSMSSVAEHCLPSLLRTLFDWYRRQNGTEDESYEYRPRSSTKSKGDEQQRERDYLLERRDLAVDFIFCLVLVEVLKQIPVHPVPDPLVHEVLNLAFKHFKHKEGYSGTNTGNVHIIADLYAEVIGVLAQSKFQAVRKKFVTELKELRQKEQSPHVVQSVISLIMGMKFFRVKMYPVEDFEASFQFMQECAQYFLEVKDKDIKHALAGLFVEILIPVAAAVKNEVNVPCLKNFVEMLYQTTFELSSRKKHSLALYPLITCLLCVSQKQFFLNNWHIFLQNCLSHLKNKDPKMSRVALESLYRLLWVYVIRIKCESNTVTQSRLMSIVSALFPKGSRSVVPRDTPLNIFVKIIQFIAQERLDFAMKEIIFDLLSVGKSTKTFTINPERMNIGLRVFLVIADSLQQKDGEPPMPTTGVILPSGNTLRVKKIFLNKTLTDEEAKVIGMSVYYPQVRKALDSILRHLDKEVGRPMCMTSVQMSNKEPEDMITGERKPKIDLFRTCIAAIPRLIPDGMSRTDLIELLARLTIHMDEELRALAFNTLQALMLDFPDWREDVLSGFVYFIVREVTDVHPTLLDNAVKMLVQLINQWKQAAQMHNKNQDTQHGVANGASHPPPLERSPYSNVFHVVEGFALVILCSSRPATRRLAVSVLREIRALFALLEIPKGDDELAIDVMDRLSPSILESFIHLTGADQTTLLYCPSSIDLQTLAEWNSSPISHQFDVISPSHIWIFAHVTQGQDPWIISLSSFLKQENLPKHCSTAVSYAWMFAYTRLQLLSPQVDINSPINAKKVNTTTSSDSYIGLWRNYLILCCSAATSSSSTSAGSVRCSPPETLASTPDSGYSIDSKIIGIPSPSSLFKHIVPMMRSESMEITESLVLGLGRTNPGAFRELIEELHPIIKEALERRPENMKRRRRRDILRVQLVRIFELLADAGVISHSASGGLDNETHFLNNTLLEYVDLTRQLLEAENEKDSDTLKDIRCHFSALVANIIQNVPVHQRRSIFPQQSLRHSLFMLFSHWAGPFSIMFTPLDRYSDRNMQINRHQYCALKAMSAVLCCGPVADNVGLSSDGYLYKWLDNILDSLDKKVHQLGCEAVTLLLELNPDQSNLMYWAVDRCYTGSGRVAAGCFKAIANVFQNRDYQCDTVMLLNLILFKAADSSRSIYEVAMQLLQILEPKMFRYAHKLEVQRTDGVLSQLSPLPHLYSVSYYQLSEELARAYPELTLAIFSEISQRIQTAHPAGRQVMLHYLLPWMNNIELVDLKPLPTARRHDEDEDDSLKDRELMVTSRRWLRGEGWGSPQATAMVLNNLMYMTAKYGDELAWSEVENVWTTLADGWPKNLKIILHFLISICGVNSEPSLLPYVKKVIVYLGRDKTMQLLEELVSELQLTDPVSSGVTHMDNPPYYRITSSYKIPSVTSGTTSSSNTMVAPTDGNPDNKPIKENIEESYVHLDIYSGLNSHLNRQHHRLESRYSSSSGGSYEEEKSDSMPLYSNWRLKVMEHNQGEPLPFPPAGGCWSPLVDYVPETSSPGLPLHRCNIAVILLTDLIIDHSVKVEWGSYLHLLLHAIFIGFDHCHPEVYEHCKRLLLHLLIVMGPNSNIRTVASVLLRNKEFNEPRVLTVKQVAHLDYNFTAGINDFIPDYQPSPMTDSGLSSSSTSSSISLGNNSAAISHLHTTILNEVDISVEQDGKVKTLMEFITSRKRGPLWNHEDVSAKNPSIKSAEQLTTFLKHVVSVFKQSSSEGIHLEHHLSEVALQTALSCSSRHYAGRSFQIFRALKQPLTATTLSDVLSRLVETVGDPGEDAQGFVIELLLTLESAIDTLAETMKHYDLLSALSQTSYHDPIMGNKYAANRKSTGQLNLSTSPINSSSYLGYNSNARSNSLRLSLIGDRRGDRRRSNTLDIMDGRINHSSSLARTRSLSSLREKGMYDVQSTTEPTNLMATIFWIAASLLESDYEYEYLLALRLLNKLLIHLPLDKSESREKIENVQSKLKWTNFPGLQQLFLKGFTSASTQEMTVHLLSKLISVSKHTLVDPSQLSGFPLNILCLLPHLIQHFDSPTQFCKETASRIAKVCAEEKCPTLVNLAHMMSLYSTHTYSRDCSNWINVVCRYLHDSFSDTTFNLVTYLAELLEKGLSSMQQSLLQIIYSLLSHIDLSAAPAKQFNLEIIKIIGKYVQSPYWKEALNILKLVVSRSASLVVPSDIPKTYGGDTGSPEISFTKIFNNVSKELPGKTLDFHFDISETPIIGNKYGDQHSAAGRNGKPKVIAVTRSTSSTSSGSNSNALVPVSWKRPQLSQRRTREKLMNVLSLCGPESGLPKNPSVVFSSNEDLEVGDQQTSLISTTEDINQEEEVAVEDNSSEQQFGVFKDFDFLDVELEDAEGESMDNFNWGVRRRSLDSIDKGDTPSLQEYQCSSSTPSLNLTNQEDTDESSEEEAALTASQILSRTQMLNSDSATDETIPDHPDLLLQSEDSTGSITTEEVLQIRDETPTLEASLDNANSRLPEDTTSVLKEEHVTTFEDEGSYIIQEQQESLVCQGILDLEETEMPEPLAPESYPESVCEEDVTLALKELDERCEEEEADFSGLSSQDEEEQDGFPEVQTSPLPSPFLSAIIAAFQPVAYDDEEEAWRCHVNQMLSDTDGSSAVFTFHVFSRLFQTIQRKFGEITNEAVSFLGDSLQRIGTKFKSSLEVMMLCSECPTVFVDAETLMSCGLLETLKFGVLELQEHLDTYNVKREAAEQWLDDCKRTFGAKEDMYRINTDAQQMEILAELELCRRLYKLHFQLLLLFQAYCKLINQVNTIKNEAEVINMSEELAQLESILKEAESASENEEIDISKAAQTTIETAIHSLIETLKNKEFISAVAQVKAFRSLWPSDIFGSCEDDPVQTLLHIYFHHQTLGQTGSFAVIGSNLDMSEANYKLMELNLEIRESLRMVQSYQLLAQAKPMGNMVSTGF
UniProt O60232: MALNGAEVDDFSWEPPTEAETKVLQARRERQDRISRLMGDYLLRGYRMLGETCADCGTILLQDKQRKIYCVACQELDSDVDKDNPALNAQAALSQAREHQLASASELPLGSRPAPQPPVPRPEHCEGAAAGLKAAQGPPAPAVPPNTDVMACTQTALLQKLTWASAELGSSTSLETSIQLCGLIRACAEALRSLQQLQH
UniProt O75528: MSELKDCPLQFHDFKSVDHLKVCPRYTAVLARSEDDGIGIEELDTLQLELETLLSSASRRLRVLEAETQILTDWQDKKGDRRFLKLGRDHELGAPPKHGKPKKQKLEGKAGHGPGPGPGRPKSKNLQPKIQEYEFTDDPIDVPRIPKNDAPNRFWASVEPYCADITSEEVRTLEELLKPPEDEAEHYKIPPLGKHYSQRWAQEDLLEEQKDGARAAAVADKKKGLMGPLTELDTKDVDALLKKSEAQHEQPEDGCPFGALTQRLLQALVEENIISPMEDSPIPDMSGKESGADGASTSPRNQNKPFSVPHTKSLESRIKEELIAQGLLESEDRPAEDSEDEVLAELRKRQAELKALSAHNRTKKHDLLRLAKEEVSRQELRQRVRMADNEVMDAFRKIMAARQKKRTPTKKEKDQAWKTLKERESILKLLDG
UniProt O60547: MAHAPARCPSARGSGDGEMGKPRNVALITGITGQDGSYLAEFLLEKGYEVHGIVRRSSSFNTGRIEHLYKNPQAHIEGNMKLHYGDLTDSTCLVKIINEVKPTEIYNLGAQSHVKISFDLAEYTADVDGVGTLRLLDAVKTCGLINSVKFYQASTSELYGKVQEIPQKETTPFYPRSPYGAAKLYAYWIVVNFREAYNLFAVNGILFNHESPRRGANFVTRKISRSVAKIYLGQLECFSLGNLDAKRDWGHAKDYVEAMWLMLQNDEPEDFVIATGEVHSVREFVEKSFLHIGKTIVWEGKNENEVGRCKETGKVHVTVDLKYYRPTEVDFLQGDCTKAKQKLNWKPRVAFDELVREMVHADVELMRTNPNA
UniProt O75822, whole entry: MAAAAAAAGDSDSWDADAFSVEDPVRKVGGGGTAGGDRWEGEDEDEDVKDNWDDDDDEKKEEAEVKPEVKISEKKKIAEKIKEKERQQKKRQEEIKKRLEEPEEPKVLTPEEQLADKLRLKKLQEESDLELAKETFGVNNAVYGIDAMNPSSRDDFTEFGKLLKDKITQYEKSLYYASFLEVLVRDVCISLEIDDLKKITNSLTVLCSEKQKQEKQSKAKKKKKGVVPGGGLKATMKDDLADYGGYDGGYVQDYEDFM
UniProt O94804: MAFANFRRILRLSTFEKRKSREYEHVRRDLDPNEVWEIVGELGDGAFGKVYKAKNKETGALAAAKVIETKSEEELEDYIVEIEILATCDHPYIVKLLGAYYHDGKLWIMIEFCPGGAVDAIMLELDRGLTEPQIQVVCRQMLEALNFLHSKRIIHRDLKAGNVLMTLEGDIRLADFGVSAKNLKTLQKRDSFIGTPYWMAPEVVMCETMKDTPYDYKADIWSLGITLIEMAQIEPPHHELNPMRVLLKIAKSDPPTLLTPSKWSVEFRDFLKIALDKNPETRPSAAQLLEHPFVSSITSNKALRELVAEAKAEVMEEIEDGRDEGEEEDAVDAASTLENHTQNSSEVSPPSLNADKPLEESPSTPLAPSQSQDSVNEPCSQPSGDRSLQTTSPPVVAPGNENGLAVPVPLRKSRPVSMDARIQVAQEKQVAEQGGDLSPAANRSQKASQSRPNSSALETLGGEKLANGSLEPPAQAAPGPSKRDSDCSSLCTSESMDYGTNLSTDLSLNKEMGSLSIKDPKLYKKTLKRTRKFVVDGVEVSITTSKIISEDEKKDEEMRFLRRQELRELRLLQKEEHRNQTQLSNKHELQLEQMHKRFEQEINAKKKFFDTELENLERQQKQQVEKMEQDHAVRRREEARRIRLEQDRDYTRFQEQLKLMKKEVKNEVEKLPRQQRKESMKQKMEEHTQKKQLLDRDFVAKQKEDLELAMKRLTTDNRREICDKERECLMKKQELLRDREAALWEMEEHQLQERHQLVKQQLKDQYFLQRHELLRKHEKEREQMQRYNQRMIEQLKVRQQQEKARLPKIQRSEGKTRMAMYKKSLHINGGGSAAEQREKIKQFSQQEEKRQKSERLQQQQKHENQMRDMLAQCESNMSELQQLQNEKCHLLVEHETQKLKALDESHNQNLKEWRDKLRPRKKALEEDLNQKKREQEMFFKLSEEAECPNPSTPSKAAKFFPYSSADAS
UniProt O60271: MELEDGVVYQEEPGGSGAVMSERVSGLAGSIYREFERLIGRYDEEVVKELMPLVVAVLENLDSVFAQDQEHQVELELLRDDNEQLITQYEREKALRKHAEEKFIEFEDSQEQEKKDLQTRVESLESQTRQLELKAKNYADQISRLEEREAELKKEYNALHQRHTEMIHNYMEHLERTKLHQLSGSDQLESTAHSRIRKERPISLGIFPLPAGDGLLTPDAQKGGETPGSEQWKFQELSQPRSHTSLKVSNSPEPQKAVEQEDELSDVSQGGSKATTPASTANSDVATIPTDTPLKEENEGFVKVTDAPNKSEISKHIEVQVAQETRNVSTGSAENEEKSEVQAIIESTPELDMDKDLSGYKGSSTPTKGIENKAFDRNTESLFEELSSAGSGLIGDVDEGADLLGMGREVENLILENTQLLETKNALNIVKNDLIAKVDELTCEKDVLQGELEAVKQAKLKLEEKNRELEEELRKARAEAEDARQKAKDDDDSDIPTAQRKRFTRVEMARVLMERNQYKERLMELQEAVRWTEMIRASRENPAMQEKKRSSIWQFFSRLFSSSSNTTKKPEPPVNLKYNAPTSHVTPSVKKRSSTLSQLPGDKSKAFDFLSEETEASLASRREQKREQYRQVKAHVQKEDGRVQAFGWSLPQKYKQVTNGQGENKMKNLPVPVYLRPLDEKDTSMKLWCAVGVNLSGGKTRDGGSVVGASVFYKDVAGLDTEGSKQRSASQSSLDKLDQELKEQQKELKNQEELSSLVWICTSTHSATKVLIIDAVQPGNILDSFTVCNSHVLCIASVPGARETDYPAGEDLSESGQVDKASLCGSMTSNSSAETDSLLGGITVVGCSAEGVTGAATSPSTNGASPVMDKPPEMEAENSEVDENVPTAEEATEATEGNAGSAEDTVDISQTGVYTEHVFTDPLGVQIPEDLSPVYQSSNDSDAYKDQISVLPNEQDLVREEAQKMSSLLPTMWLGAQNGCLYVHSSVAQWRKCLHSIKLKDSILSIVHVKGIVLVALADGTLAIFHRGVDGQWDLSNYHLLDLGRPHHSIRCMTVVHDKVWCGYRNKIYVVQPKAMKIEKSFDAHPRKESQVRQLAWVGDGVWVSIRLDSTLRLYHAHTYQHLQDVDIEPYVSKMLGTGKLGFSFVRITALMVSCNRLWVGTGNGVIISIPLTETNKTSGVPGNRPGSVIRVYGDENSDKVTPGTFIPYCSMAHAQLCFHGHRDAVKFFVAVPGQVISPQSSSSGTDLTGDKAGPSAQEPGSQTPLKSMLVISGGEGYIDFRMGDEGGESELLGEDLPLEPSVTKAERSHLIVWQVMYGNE

Compound: Nc1ncnc2c1ncn2[C@@H]1O[C@H](COP(=O)(O)OP(=O)(O)NP(=O)(O)O)[C@@H](O)[C@H]1O [adenylyl imidodiphosphate]
Test: NP40-soluble protein abundance relative to vehicle (solubility fold change) (ratio); higher = more soluble protein in presence of AMP-PNP
How it was run: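 Jurkat crude lysate (Dounce-homogenised) was treated with eight concentrations from 0.1 to 10 mM for 10 min at room temperature, then 3 min at 37 °C. It was solubilised with 0.8% NP40 and benzonase (60 min, 4 °C) and ultracentrifuged, and the supernatant was TMT-labelled for LC-MS/MS. Intensities were vsn-normalised, and the value is the fold change against the NP40-processed vehicle per replicate, from three independent experiments.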

Target	NP40-soluble protein abundance (concentration: 1mM)	NP40-soluble protein abundance (concentration: 2mM)	NP40-soluble protein abundance (concentration: 4mM)	NP40-soluble protein abundance (concentration: 6mM)	NP40-soluble protein abundance (concentration: 8mM)	NP40-soluble protein abundance (concentration: 10mM)
UniProt O75190-2|A0A0J9YX62|O75190 and related entries	0.872 ± 0.036	0.86 ± 0.043	0.845 ± 0.056	0.825 ± 0.052	0.821 ± 0.023	0.778 ± 0.062
AQR (UniProt O60306)	0.988 ± 0.022	0.888 ± 0.12	1 ± 0.094	0.922 ± 0.026	0.994 ± 0.095	0.915 ± 0.07
FRYL (UniProt O94915)	0.96 ± 0.041	0.95 ± 0.082	0.955 ± 0.059	0.96 ± 0.049	0.938 ± 0.053	0.958 ± 0.078
UniProt O94906 and related entries	1.03 ± 0.044	0.984 ± 0.018	1.03 ± 0.077	1.07 ± 0.12	1.11 ± 0.12	1.22 ± 0.19
ZBED4 (UniProt O75132)	1.01 ± 0.023	1.01 ± 0.036	0.979 ± 0.03	0.965 ± 0.031	0.966 ± 0.024	0.984 ± 0.026
KIN (UniProt O60870)	1.02 ± 0.031	1.03 ± 0.015	1.046 ± 0.0083	1.06 ± 0.03	1.05 ± 0.011	1.06 ± 0.012
MTRF1 (UniProt O75570)	0.986 ± 0.023	0.948 ± 0.047	0.996 ± 0.01	0.99 ± 0.018	0.984 ± 0.033	0.968 ± 0.04
UniProt O60232	1.03 ± 0.058	1.04 ± 0.033	1.01 ± 0.078	0.993 ± 0.043	1.01 ± 0.067	0.985 ± 0.029
UniProt O75928 and related entries	1 ± 0.034	1.01 ± 0.022	0.959 ± 0.037	0.986 ± 0.049	0.959 ± 0.029	0.989 ± 0.031
MED14 (UniProt O60244)	0.994 ± 0.028	0.989 ± 0.058	1.02 ± 0.065	1.02 ± 0.087	0.99 ± 0.072	1.04 ± 0.1
UniProt O60524 and related entries	1.07 ± 0.03	1.08 ± 0.018	1.11 ± 0.042	1.13 ± 0.022	1.15 ± 0.014	1.18 ± 0.044
UniProt O94916 and related entries	1.01 ± 0.056	1.02 ± 0.049	1 ± 0.044	0.988 ± 0.037	1.03 ± 0.049	1 ± 0.046
UniProt O60341	0.957 ± 0.026	0.924 ± 0.062	0.984 ± 0.052	1.04 ± 0.03	1.04 ± 0.03	1.04 ± 0.049
NUP155 (UniProt O75694)	0.983 ± 0.046	0.919 ± 0.062	1 ± 0.025	0.98 ± 0.039	1.01 ± 0.035	1 ± 0.023
UniProt O60508 and related entries	1.03 ± 0.018	1.07 ± 0.029	1.06 ± 0.026	1.09 ± 0.059	1.08 ± 0.044	1.13 ± 0.056
SMPD2 (UniProt O60906)	1.01 ± 0.023	1.02 ± 0.043	1.03 ± 0.047	1.01 ± 0.015	0.996 ± 0.027	1.01 ± 0.039
UniProt O95218-2	1.02 ± 0.046	1.09 ± 0.076	1 ± 0.076	0.983 ± 0.012	0.948 ± 0.048	0.992 ± 0.038

Another view of some results above.
UniProt O60341
  NP40-soluble protein abundance (concentration: 1mM): 0.957 ± 0.026
  NP40-soluble protein abundance (concentration: 2mM): 0.924 ± 0.062
  NP40-soluble protein abundance (concentration: 4mM): 0.984 ± 0.052
  NP40-soluble protein abundance (concentration: 6mM): 1.04 ± 0.03
  NP40-soluble protein abundance (concentration: 8mM): 1.04 ± 0.03
  NP40-soluble protein abundance (concentration: 10mM): 1.04 ± 0.049
NUP155 (UniProt O75694)
  NP40-soluble protein abundance (concentration: 1mM): 0.983 ± 0.046
  NP40-soluble protein abundance (concentration: 2mM): 0.919 ± 0.062
  NP40-soluble protein abundance (concentration: 4mM): 1 ± 0.025
  NP40-soluble protein abundance (concentration: 6mM): 0.98 ± 0.039
  NP40-soluble protein abundance (concentration: 8mM): 1.01 ± 0.035
  NP40-soluble protein abundance (concentration: 10mM): 1 ± 0.023

Next results follow:

Target	NP40-soluble protein abundance (concentration: 1mM)	NP40-soluble protein abundance (concentration: 2mM)	NP40-soluble protein abundance (concentration: 4mM)	NP40-soluble protein abundance (concentration: 6mM)	NP40-soluble protein abundance (concentration: 8mM)	NP40-soluble protein abundance (concentration: 10mM)
UniProt O94855 and related entries	0.963 ± 0.057	0.912 ± 0.12	0.955 ± 0.066	0.934 ± 0.043	0.943 ± 0.03	0.924 ± 0.078
BANF1 (UniProt O75531)	2.32 ± 0.38	2.76 ± 0.16	3 ± 0.25	3.73 ± 0.25	4.03 ± 0.2	4.25 ± 0.21
UniProt O75528 and related entries	1.03 ± 0.022	1.1 ± 0.089	1.05 ± 0.076	1.05 ± 0.058	1.02 ± 0.02	1.04 ± 0.046
UniProt O75179 and related entries	1.037 ± 0.0076	1.05 ± 0.05	1.069 ± 0.0067	1.07 ± 0.04	1.08 ± 0.022	1.13 ± 0.018
DHX16 (UniProt O60231)	1.03 ± 0.014	1.031 ± 0.0054	1.03 ± 0.013	1.04 ± 0.019	1.04 ± 0.024	1.05 ± 0.043
UniProt O60869 and related entries	1.05 ± 0.021	1.1 ± 0.11	1.07 ± 0.062	1.12 ± 0.026	1.16 ± 0.055	1.19 ± 0.054
KIF4A (UniProt O95239)	1.026 ± 0.0028	1.06 ± 0.035	1.03 ± 0.01	1.02 ± 0.018	1.011 ± 0.0083	1.04 ± 0.033
GMDS (UniProt O60547)	1.02 ± 0.021	0.949 ± 0.095	1.02 ± 0.035	0.965 ± 0.026	1.03 ± 0.047	0.95 ± 0.024
DGAT1 (UniProt O75907)	0.923 ± 0.013	0.9417 ± 0.0028	0.959 ± 0.039	0.9755 ± 0.0015	0.983 ± 0.054	0.936 ± 0.062
UniProt O94927	0.978 ± 0.031	0.9803 ± 0.00099	0.979 ± 0.013	1.03 ± 0.032	1.02 ± 0.018	1.01 ± 0.024
UniProt O76054 and related entries	0.985 ± 0.028	1.01 ± 0.036	1.01 ± 0.02	1.02 ± 0.047	1.02 ± 0.035	1.06 ± 0.059
UniProt O75822 and related entries	0.876 ± 0.042	0.941 ± 0.07	0.858 ± 0.031	0.949 ± 0.026	0.957 ± 0.029	0.99 ± 0.015
UniProt O94804	1.03 ± 0.017	1.04 ± 0.031	1.01 ± 0.027	0.987 ± 0.029	0.96 ± 0.012	0.991 ± 0.048
UniProt O95071 and related entries	0.989 ± 0.084	0.957 ± 0.065	0.95 ± 0.071	0.904 ± 0.086	0.864 ± 0.059	0.892 ± 0.088
STAMBP (UniProt O95630)	1.02 ± 0.02	0.993 ± 0.012	0.995 ± 0.03	0.984 ± 0.018	0.964 ± 0.033	0.948 ± 0.06
UniProt O60271 and related entries	1.04 ± 0.012	1.09 ± 0.038	1.04 ± 0.035	1.02 ± 0.023	0.977 ± 0.012	1.02 ± 0.041
UniProt O75534 and related entries	0.986 ± 0.023	0.955 ± 0.047	0.9849 ± 0.0038	1 ± 0.029	0.993 ± 0.034	0.984 ± 0.024
